Patent US20220363763A1
These are yes or no findings as the source states them, for the method shown. Some entries that bind do so weakly or less than the wild type.

Chains of the proteins cited; added tags and fusions are not shown. Lines headed by an entry give the natural chain unless they say otherwise; changes in a name come on top. A line that says so, or that is headed by a name, gives the form on record, which may keep a tag or linker.
rhesus PD-L1-Fc protein (F6PJN1, form named): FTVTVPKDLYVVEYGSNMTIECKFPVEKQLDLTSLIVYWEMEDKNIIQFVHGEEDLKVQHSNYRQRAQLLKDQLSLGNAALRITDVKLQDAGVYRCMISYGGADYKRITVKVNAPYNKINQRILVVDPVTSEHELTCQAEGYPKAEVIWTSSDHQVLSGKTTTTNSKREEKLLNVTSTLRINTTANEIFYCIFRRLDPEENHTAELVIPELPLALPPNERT

What was measured:
[1] = biological target: T1, biotin-labeled LAG3-ECD (Homo sapiens (Human)) (UniProt P18627); test: ELISA on coated recombinant FGL-1; blocking of the binding of biotin-labeled LAG3-ECD to FGL-1
T1 sequence (chain, by the resolver, biotin label, site not stated): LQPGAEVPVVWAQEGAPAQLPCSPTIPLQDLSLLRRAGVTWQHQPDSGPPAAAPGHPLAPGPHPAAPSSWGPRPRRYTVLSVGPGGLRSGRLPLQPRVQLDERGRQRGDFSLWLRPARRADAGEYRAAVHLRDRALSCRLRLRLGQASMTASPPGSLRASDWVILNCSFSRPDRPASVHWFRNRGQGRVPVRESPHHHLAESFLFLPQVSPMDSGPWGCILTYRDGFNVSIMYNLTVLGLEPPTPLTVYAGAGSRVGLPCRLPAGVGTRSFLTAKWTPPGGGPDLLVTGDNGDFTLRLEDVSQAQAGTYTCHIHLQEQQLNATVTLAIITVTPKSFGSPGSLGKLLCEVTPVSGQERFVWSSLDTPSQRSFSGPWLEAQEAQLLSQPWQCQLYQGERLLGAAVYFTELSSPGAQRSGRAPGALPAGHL

[2] = biological target: rhesus PD-L1-Fc protein (rhesus) (UniProt F6PJN1); test: ELISA (FIG. 8)
[3] = biological target: rhesus PD-L1-Fc protein (rhesus) (UniProt F6PJN1); test: ELISA on coated rhesus PD-L1-Fc

B1: 147H 3807 (antibody, V domains shown)
VH: EVQLVQSGAEVKKPGASVKVSCKASGYTFTNYWLGWIKQAPGQGLEWIGDIYPGGDYIVYNEKFKGKATLTADTSISTAYMELSRLRSDDTAVYYCARPNLPKDHWGQGTTVTVSS
VL: DIVMTQSPLSLPVTPGEPASISCRSSKSLLHSQGITYLYWYLQKPGQSPQLLIYQVSNLASGVPDRFSGSGSGTDFTLKISRVEAEDVGVYYCAQYLELPWTFGGGTKVEIK
binding [1]: binds

B2: Hu1210-41 (antibody, V domains shown)
VH: EVQLVESGGGLVQPGGSLRLSCAASGFTFSSYDMSWVRQAPGKSLEWVATISDAGGYIYYSDSVKGRFTISRDNAKNSLYLQMNSLRDEDTAVYICAREFGKRYALDYWGQGTTVTVSS
VL: DIQMTQSPSSLSASVGDRVTITCKASQDVTPAVAWYQQKPGKAPKLLIYSTSSRYTGVPSRFSGSGSGTDFTFTISSLQPEDIATYYCQQHYTTPLTFGQGTKLEIK
binding [2]: binds | binding [3]: binds
